These are yes or no findings as the source states them, for the method shown. For some of these results: Binding seen in cells or lysates may run through a third protein. Some results given as binding are weak or reduced against the parent protein; the word gives no strength. For some of these results: Where a sequence is shown, tags or fusion partners need not be part of it.
T1: GST-Dgp71WD (Drosophila) (UniProt Q9VJ57)
T1 sequence: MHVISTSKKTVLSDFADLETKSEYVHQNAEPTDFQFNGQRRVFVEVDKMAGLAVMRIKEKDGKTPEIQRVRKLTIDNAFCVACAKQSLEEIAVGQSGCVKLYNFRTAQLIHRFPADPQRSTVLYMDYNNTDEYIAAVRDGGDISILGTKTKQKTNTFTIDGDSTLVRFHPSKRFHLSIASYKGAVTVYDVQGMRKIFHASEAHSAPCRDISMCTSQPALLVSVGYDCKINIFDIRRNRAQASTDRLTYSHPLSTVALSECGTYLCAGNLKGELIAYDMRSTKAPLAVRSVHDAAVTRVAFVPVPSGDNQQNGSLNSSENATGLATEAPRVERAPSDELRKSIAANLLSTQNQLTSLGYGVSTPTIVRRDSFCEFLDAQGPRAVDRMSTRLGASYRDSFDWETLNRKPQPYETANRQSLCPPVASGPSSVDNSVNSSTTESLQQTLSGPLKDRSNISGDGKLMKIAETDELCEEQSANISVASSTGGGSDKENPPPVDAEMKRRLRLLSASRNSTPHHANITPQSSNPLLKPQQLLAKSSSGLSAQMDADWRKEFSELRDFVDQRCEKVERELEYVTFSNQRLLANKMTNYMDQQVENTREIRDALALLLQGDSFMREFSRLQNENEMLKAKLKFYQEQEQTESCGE

T2: Dgt3 (Drosophila (endogenous in embryos)) (UniProt Q9W2P0)
T2 sequence: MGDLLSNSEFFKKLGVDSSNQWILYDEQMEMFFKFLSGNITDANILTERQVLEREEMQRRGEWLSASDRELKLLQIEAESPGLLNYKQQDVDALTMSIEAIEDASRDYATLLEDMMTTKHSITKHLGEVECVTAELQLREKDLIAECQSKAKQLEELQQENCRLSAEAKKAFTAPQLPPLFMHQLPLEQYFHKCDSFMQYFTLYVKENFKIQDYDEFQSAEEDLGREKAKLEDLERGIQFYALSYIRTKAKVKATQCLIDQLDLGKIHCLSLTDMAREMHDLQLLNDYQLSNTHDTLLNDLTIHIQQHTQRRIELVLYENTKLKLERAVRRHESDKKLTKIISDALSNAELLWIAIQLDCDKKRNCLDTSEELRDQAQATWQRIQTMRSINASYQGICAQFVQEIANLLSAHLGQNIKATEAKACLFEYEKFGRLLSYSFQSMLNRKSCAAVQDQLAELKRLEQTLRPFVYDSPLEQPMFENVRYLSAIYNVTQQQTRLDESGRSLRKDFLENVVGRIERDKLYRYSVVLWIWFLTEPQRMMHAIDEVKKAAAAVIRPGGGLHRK

T3: Dgt5 (Drosophila (endogenous in embryos)) (UniProt Q7K4B4)
T3 sequence: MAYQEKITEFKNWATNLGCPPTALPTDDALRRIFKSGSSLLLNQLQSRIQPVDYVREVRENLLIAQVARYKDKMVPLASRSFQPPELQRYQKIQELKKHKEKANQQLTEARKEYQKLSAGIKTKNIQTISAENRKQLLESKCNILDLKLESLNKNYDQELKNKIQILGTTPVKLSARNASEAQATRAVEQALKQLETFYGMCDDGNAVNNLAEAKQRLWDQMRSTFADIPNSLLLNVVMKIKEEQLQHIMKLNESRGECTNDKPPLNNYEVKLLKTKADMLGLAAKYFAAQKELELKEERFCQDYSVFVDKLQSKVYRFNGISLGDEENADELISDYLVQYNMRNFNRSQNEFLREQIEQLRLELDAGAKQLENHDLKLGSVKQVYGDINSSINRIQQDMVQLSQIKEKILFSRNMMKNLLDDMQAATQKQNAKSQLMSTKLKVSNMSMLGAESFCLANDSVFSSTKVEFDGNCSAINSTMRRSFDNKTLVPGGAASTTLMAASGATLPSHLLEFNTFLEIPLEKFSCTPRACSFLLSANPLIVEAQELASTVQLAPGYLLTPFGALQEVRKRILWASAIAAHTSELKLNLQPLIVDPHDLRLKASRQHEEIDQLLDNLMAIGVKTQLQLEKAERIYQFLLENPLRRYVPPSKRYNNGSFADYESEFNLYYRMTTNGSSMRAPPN


How the values were obtained:
[1] = molecular target: T1, GST-Dgp71WD (Drosophila); test: pull-down; as a3, but His-Dgt3^N incubated with GST-Dgp71WD resin in combination with His-Dgt5^N; both purified
[2] = molecular target: T1, GST-Dgp71WD (Drosophila); test: pull-down; GST-Dgp71WD on Glutathione Agarose resin (10 µl) incubated with about 20 µg of a single His-tagged protein for 2 h at 4°C; washes in PBS with 150 mM imidazole and 0.1% IGEPAL CA-630; anti-His western blot; both purified
[3] = molecular target: T2, Dgt3 (Drosophila (endogenous in embryos)); test: cross-linking; Augmin purified through Msd1-GFP on GFP-TRAP-A beads, cross-linked with BS3 (1:5 protein to cross-linker, g/g) on ice for 2 h in C buffer; trypsin, SCX fractions, LC-MS/MS; linkage FDR 5%
[4] = molecular target: T3, Dgt5 (Drosophila (endogenous in embryos)); test: as above

binding [1]	binding [2]	binding [3]	binding [4]	Binder
binds	binds weakly	–	–	His-Dgt3^N (domain or fragment, UniProt Q9W2P0 1-350) MGDLLSNSEFFKKLGVDSSNQWILYDEQMEMFFKFLSGNITDANILTERQVLEREEMQRRGEWLSASDRELKLLQIEAESPGLLNYKQQDVDALTMSIEAIEDASRDYATLLEDMMTTKHSITKHLGEVECVTAELQLREKDLIAECQSKAKQLEELQQENCRLSAEAKKAFTAPQLPPLFMHQLPLEQYFHKCDSFMQYFTLYVKENFKIQDYDEFQSAEEDLGREKAKLEDLERGIQFYALSYIRTKAKVKATQCLIDQLDLGKIHCLSLTDMAREMHDLQLLNDYQLSNTHDTLLNDLTIHIQQHTQRRIELVLYENTKLKLERAVRRHESDKKLTKIISDALSNAE
–	–	binds	binds	Dgt6 (protein, UniProt Q9VAP2 1-654) MDRTIIAPWKAEEKEQSEKLHRKLQGLALVHPLPDELRKLIAWDMFLKPNQVAFVHVMHYLFRLLDPAEFKRRFFWPITDKKSEANFRSSTVEYLKHLNEKHQLHWANIKSYLVVMPGGMRFINFLLEFVGFVIQELIKQREKSLGLEAGTPNVSAKVMARQNAVMKEYASSYVVNLEENTALLRDKTQKIRRLMADLSADMGVPEEQLADDGFLDEFEATAALGVERVITQPTERKFDLEASLCGLKEAIDLFQVKQAENNQSKEAVEKALRGMRVLFDCDAVTEGDFYDPLGASKMDALLNGFNRISGTIAEQLDANDHYNESNAFVTTDLQALRVELSQSEVQLNNLLKKLNEPSKKDKGSANASGSARVQTLQPATPRFESVISSKFVSTPPIRIDMGGGGGRNAPVRLALQDDFNGKQFDALSNSLLAPAPPRSARKLKALDQSTGIDLNGTLNRSKINDPMQMLRTIHKNTSKVKAAPQANLSSLGSKWKQMQASFGFDEAPVPGAAVISPQTSPTDPSDPFTPLSGSECTRIERIPRTSENNTSLIAKSAAVIKVLEVSRNVLNLSTSPSGRLDALVPHTESHQQDVAPRLQLNDRTINDSLQLDPDFNIENDKNAFNVSHKFDFDQIGGEDDLQNISDSVLKDIIF
–	binds	–	–	His-Dgt6^C (domain or fragment, UniProt Q9VAP2 298-654) MDALLNGFNRISGTIAEQLDANDHYNESNAFVTTDLQALRVELSQSEVQLNNLLKKLNEPSKKDKGSANASGSARVQTLQPATPRFESVISSKFVSTPPIRIDMGGGGGRNAPVRLALQDDFNGKQFDALSNSLLAPAPPRSARKLKALDQSTGIDLNGTLNRSKINDPMQMLRTIHKNTSKVKAAPQANLSSLGSKWKQMQASFGFDEAPVPGAAVISPQTSPTDPSDPFTPLSGSECTRIERIPRTSENNTSLIAKSAAVIKVLEVSRNVLNLSTSPSGRLDALVPHTESHQQDVAPRLQLNDRTINDSLQLDPDFNIENDKNAFNVSHKFDFDQIGGEDDLQNISDSVLKDIIF
–	–	–	binds	Dgt3 (protein, UniProt Q9W2P0 1-565) MGDLLSNSEFFKKLGVDSSNQWILYDEQMEMFFKFLSGNITDANILTERQVLEREEMQRRGEWLSASDRELKLLQIEAESPGLLNYKQQDVDALTMSIEAIEDASRDYATLLEDMMTTKHSITKHLGEVECVTAELQLREKDLIAECQSKAKQLEELQQENCRLSAEAKKAFTAPQLPPLFMHQLPLEQYFHKCDSFMQYFTLYVKENFKIQDYDEFQSAEEDLGREKAKLEDLERGIQFYALSYIRTKAKVKATQCLIDQLDLGKIHCLSLTDMAREMHDLQLLNDYQLSNTHDTLLNDLTIHIQQHTQRRIELVLYENTKLKLERAVRRHESDKKLTKIISDALSNAELLWIAIQLDCDKKRNCLDTSEELRDQAQATWQRIQTMRSINASYQGICAQFVQEIANLLSAHLGQNIKATEAKACLFEYEKFGRLLSYSFQSMLNRKSCAAVQDQLAELKRLEQTLRPFVYDSPLEQPMFENVRYLSAIYNVTQQQTRLDESGRSLRKDFLENVVGRIERDKLYRYSVVLWIWFLTEPQRMMHAIDEVKKAAAAVIRPGGGLHRK
–	binds	–	–	His-Dgt5^N (domain or fragment, UniProt Q7K4B4 1-450) MAYQEKITEFKNWATNLGCPPTALPTDDALRRIFKSGSSLLLNQLQSRIQPVDYVREVRENLLIAQVARYKDKMVPLASRSFQPPELQRYQKIQELKKHKEKANQQLTEARKEYQKLSAGIKTKNIQTISAENRKQLLESKCNILDLKLESLNKNYDQELKNKIQILGTTPVKLSARNASEAQATRAVEQALKQLETFYGMCDDGNAVNNLAEAKQRLWDQMRSTFADIPNSLLLNVVMKIKEEQLQHIMKLNESRGECTNDKPPLNNYEVKLLKTKADMLGLAAKYFAAQKELELKEERFCQDYSVFVDKLQSKVYRFNGISLGDEENADELISDYLVQYNMRNFNRSQNEFLREQIEQLRLELDAGAKQLENHDLKLGSVKQVYGDINSSINRIQQDMVQLSQIKEKILFSRNMMKNLLDDMQAATQKQNAKSQLMSTKLKVSNMSML
